Measurements published in the supplement of paper PMC8728848.
The other results are listed elsewhere or left out.

Columns and labels:
Assay in all cases: glycan array binding signal (z-score within array); higher = stronger binding
Conditions in all cases: glycan notation: IUPAC condensed, linker removed
[1] = molecular target: Gal6S(b1-4)Glc
Outline: (§1)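 The Consortium for Functional Glycomics database supplied 3228 glycan arrays, of which those lacking an available protein sequence were dropped. The binding signal, a within-array Z-score, was averaged across arrays of the same protein sequence and across linkers. Negative scores can be read as non-binding.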

[2] = molecular target: Gal6S(b1-4)Glc6S
Outline: as §1

[3] = molecular target: Gal6S(b1-4)GlcNAc
Outline: as §1

[4] = molecular target: Gal6S(b1-4)GlcNAc6S
Outline: as §1

[5] = molecular target: GalNAc(a1-3)Gal
Outline: as §1

[6] = molecular target: GalNAc(a1-3)GalNAc
Outline: as §1

[7] = molecular target: GalNAc(a1-3)GalNAc(b1-3)Gal(a1-4)Gal(b1-4)Glc
Outline: as §1

[8] = molecular target: GalNAc(a1-3)GalNAc(b1-3)Gal(a1-4)Gal(b1-4)GlcNAc
Outline: as §1

[9] = molecular target: GalNAc(b1-3)Gal
Outline: as §1

[10] = molecular target: GalNAc(b1-3)Gal(a1-4)Gal(b1-4)GlcNAc
Outline: as §1

[11] = molecular target: GalNAc(b1-3)Gal(a1-4)Gal(b1-4)GlcNAc(b1-3)Gal(b1-4)Glc
Outline: as §1

[12] = molecular target: GalNAc(b1-3)Gal(a1-6)Gal(b1-4)Glc
Outline: as §1

[13] = molecular target: GalNAc(b1-3)GalNAc
Outline: as §1

[14] = molecular target: GalNAc(b1-3)GlcNAc
Outline: as §1

[15] = molecular target: GalNAc(b1-4)Gal(b1-4)Glc
Outline: as §1

[16] = molecular target: GalNAc(b1-4)GlcNAc
Outline: as §1

[17] = molecular target: GalNAc(b1-4)GlcNAc(b1-2)Man
Outline: as §1

[18] = molecular target: GalNAc(b1-4)GlcNAc(b1-2)Man(a1-3)[GalNAc(b1-4)GlcNAc(b1-2)Man(a1-6)]Man(b1-4)GlcNAc(b1-4)GlcNAc
Outline: as §1

[19] = molecular target: GalNAc(b1-4)GlcNAc(b1-3)GalNAc(b1-4)GlcNAc
Outline: as §1

[20] = molecular target: GalNAc(b1-4)GlcNAc6S
Outline: as §1

[21] = molecular target: GalNAc(b1-6)GalNAc
Outline: as §1

[22] = molecular target: GalNAc3S(b1-4)GlcNAc
Outline: as §1

[23] = molecular target: GalNAc3S(b1-4)GlcNAc3S
Outline: as §1

[24] = molecular target: GalNAc3S(b1-4)[Fuc(a1-3)]GlcNAc
Outline: as §1

[25] = molecular target: GalNAc4S6S(b1-4)GlcNAc
Outline: as §1

[26] = molecular target: GalNAc6S(b1-4)GlcNAc
Outline: as §1

[27] = molecular target: Glc(a1-4)Glc
Outline: as §1

[28] = molecular target: Glc(a1-4)Glc(a1-4)Glc(a1-4)Glc
Outline: as §1

[29] = molecular target: Glc(a1-6)Glc(a1-6)Glc
Outline: as §1

[30] = molecular target: Glc(a1-6)Glc(a1-6)Glc(a1-6)Glc
Outline: as §1

[31] = molecular target: Glc(b1-4)Glc
Outline: as §1

[32] = molecular target: Glc(b1-6)Glc
Outline: as §1

[33] = molecular target: GlcA(b1-3)Gal
Outline: as §1

[34] = molecular target: GlcA(b1-3)GlcNAc
Outline: as §1

[35] = molecular target: GlcA(b1-6)Gal
Outline: as §1

[36] = molecular target: GlcA3S(b1-3)Gal(b1-4)GlcNAc(b1-2)Man
Outline: as §1

[37] = molecular target: GlcA3S(b1-3)Gal(b1-4)GlcNAc(b1-3)Gal(b1-4)Glc
Outline: as §1

[38] = molecular target: GlcNAc(a1-3)Gal(b1-4)GlcNAc
Outline: as §1

[39] = molecular target: GlcNAc(a1-4)Gal(b1-3)GlcNAc
Outline: as §1

[40] = molecular target: GlcNAc(a1-4)Gal(b1-4)GalNAc
Outline: as §1

[41] = molecular target: GlcNAc(a1-4)Gal(b1-4)GlcNAc
Outline: as §1

[42] = molecular target: GlcNAc(a1-4)Gal(b1-4)GlcNAc(b1-3)Gal(b1-4)Glc
Outline: as §1

[43] = molecular target: GlcNAc(a1-4)Gal(b1-4)GlcNAc(b1-3)Gal(b1-4)GlcNAc
Outline: as §1

[44] = molecular target: GlcNAc(a1-4)Gal(b1-4)GlcNAc(b1-3)Gal(b1-4)GlcNAc(b1-3)Gal(b1-4)GlcNAc
Outline: as §1

[45] = molecular target: GlcNAc(a1-4)Gal(b1-4)GlcNAc(b1-3)Gal(b1-4)[Fuc(a1-3)]GlcNAc(b1-3)Gal(b1-4)[Fuc(a1-3)]GlcNAc
Outline: as §1

B1: BIp1-His (Cryptococcus neoformans) (protein)
chain: MFTKIFVALFAATAVLSAPVESAEKRITHTGRATFYSPSVGIGACGWQNTDEELVVALNAPQYALNADHNCGQSVRITNEQNGNQEIAKVVDLCPGCNDGDLDMSPALFGALNNNDFDQGVFPISWNFLPRDDTSSSN
Question: For B1, which “glycan array binding signal (z-score)” value [1] is on record?
Answer: -0.039

Question: And the “glycan array binding signal (z-score)” value [2]?
Answer: -0.645

Question: What about the “glycan array binding signal (z-score)” value [3] of the same binder?
Answer: 0.547

Question: And the “glycan array binding signal (z-score)” value [4]?
Answer: 0.298

Question: What about the “glycan array binding signal (z-score)” value [5] of the same binder?
Answer: 0.043

Question: And the “glycan array binding signal (z-score)” value [6]?
Answer: 0.617

Question: And the “glycan array binding signal (z-score)” value [7]?
Answer: 0.395

Question: And the “glycan array binding signal (z-score)” value [8]?
Answer: -0.181

Question: And the “glycan array binding signal (z-score)” value [9]?
Answer: -0.111

Question: What about the “glycan array binding signal (z-score)” value [10] of the same binder?
Answer: 0.069

Question: What about the “glycan array binding signal (z-score)” value [11] of the same binder?
Answer: -0.061

Question: And the “glycan array binding signal (z-score)” value [12]?
Answer: 1.26

Question: And the “glycan array binding signal (z-score)” value [13]?
Answer: -0.776

Question: And the “glycan array binding signal (z-score)” value [14]?
Answer: -0.399

Question: And the “glycan array binding signal (z-score)” value [15]?
Answer: 0.482

Question: And the “glycan array binding signal (z-score)” value [16]?
Answer: 0.327

Question: And the “glycan array binding signal (z-score)” value [17]?
Answer: -1.18

Question: What about the “glycan array binding signal (z-score)” value [18] of the same binder?
Answer: 0.461

Question: What about the “glycan array binding signal (z-score)” value [19] of the same binder?
Answer: -0.335

Question: And the “glycan array binding signal (z-score)” value [20]?
Answer: 0.287

Question: And the “glycan array binding signal (z-score)” value [21]?
Answer: -0.887

Question: What about the “glycan array binding signal (z-score)” value [22] of the same binder?
Answer: 0.365

Question: What about the “glycan array binding signal (z-score)” value [23] of the same binder?
Answer: 0.379

Question: What about the “glycan array binding signal (z-score)” value [24] of the same binder?
Answer: -0.751

Question: What about the “glycan array binding signal (z-score)” value [25] of the same binder?
Answer: 0.577

Question: What about the “glycan array binding signal (z-score)” value [26] of the same binder?
Answer: -0.533

Question: What about the “glycan array binding signal (z-score)” value [27] of the same binder?
Answer: -0.489

Question: And the “glycan array binding signal (z-score)” value [28]?
Answer: 1.1

Question: And the “glycan array binding signal (z-score)” value [29]?
Answer: -0.071

Question: What about the “glycan array binding signal (z-score)” value [30] of the same binder?
Answer: -0.635

Question: And the “glycan array binding signal (z-score)” value [31]?
Answer: -0.852

Question: What about the “glycan array binding signal (z-score)” value [32] of the same binder?
Answer: -0.14

Question: What about the “glycan array binding signal (z-score)” value [33] of the same binder?
Answer: -0.254

Question: What about the “glycan array binding signal (z-score)” value [34] of the same binder?
Answer: -0.499

Question: What about the “glycan array binding signal (z-score)” value [35] of the same binder?
Answer: -0.416

Question: What about the “glycan array binding signal (z-score)” value [36] of the same binder?
Answer: -0.207

Question: And the “glycan array binding signal (z-score)” value [37]?
Answer: -0.183

Question: And the “glycan array binding signal (z-score)” value [38]?
Answer: 0.188

Question: What about the “glycan array binding signal (z-score)” value [39] of the same binder?
Answer: -0.318

Question: And the “glycan array binding signal (z-score)” value [40]?
Answer: -1.12

Question: And the “glycan array binding signal (z-score)” value [41]?
Answer: -0.708

Question: And the “glycan array binding signal (z-score)” value [42]?
Answer: 0.045

Question: And the “glycan array binding signal (z-score)” value [43]?
Answer: -0.297

Question: What about the “glycan array binding signal (z-score)” value [44] of the same binder?
Answer: -0.512

Question: And the “glycan array binding signal (z-score)” value [45]?
Answer: 2.19
